Results taken from PubChem BioAssay AID186 (DTP/NCI, 2004).
The mice bore no tumour; each value counts animals alive of those treated. Counts of survivors are from the toxicity check (mostly the fifth day) where no day follows; animals may have died later. Schedules are NCI's codes, taken here to give the interval after Q, in days (D) or hours (H), and the number of doses after X. Some structures stand for samples that the source files as different forms (salt, stereo form or complex); doses refer to the form tested. Signs of the kind (2×) say how often a value occurs here.

Tested on: B6D2F1 mice, nontumored toxicity test, survival
Test: NCI In Vivo Anticancer Drug Screen. Data for tumor model Nontumored Animals (Toxicity Test) in B6D2F1 (BDF1) mice

O=C1c2ccccc2C(=O)c2c(NCCNCCO)ccc(NCCNCCO)c21
survivor count (dose: 1.0 mg/kg/injection, schedule: Q03HX016 (ip), vehicle: acid diluted with saline): 8 of 8 | survivor count (dose: 1.0 mg/kg/injection, schedule: Q03HX024 (ip), vehicle: acid diluted with saline): 8 of 8 | survivor count (dose: 1.0 mg/kg/injection, schedule: Q03HX024 (ip), vehicle: saline): 8 of 8 | survivor count (dose: 2.0 mg/kg/injection, schedule: Q01DX009 (ip), vehicle: acid diluted with saline): 8 of 8 | survivor count (dose: 2.0 mg/kg/injection, schedule: Q01DX009 (ip), vehicle: saline): 8 of 8 | survivor count (dose: 2.0 mg/kg/injection, schedule: Q01DX009 (sc), vehicle: acid diluted with saline): 8 of 8 | survivor count (dose: 2.0 mg/kg/injection, schedule: Q03HX008 (ip), vehicle: acid diluted with saline): 8 of 8 | survivor count (dose: 2.0 mg/kg/injection, schedule: Q03HX008 (ip), vehicle: saline): 8 of 8 | survivor count (dose: 2.0 mg/kg/injection, schedule: Q03HX016 (ip), vehicle: acid diluted with saline): 8 of 8 | survivor count (dose: 2.0 mg/kg/injection, schedule: Q03HX024 (ip), vehicle: acid diluted with saline): 8 of 8 | survivor count (dose: 2.0 mg/kg/injection, schedule: Q03HX024 (ip), vehicle: saline): 8 of 8 | survivor count (dose: 3.12 mg/kg/injection, schedule: Q01DX009 (ip), vehicle: saline): 10 of 10 (2×) | survivor count (dose: 4.0 mg/kg/injection, schedule: Q01DX005 (ip), vehicle: acid diluted with saline): 8 of 8 | survivor count (dose: 4.0 mg/kg/injection, schedule: Q01DX005 (ip), vehicle: saline): 8 of 8 | survivor count (dose: 4.0 mg/kg/injection, schedule: Q01DX005 (iv), vehicle: saline): 8 of 8 | survivor count (dose: 4.0 mg/kg/injection, schedule: Q01DX009 (ip), vehicle: acid diluted with saline): 8 of 8 | survivor count (dose: 4.0 mg/kg/injection, schedule: Q01DX009 (ip), vehicle: saline): 8 of 8 | survivor count (dose: 4.0 mg/kg/injection, schedule: Q01DX009 (sc), vehicle: acid diluted with saline): 8 of 8 | survivor count (dose: 4.0 mg/kg/injection, schedule: Q01DX009 (sc), vehicle: saline): 8 of 8 | survivor count (dose: 4.0 mg/kg/injection, schedule: Q03HX008 (ip), vehicle: acid diluted with saline): 8 of 8 | survivor count (dose: 4.0 mg/kg/injection, schedule: Q03HX008 (ip), vehicle: saline): 8 of 8 | survivor count (dose: 4.0 mg/kg/injection, schedule: Q03HX016 (ip), vehicle: acid diluted with saline): 8 of 8 | survivor count (dose: 4.0 mg/kg/injection, schedule: Q03HX024 (ip), vehicle: acid diluted with saline): 8 of 8 | survivor count (dose: 4.0 mg/kg/injection, schedule: Q03HX024 (ip), vehicle: saline): 8 of 8 | survivor count (dose: 6.25 mg/kg/injection, schedule: Q01DX009 (ip), vehicle: saline): 10 of 10 (2×) | survivor count (dose: 8.0 mg/kg/injection, schedule: Q01DX001 (ip), vehicle: saline): 8 of 8 | survivor count (dose: 8.0 mg/kg/injection, schedule: Q01DX005 (ip), vehicle: acid diluted with saline): 8 of 8 | survivor count (dose: 8.0 mg/kg/injection, schedule: Q01DX005 (ip), vehicle: saline): 8 of 8 | survivor count (dose: 8.0 mg/kg/injection, schedule: Q01DX005 (iv), vehicle: saline): 8 of 8 | survivor count (dose: 8.0 mg/kg/injection, schedule: Q01DX009 (ip), vehicle: acid diluted with saline): 8 of 8 | survivor count (dose: 8.0 mg/kg/injection, schedule: Q01DX009 (ip), vehicle: saline): 8 of 8 | survivor count (dose: 8.0 mg/kg/injection, schedule: Q01DX009 (oral), vehicle: acid diluted with saline): 8 of 8 | survivor count (dose: 8.0 mg/kg/injection, schedule: Q01DX009 (sc), vehicle: acid diluted with saline): 8 of 8 | survivor count (dose: 8.0 mg/kg/injection, schedule: Q01DX009 (sc), vehicle: saline): 8 of 8 | survivor count (dose: 8.0 mg/kg/injection, schedule: Q03HX008 (ip), vehicle: acid diluted with saline): 8 of 8 | survivor count (dose: 8.0 mg/kg/injection, schedule: Q03HX008 (ip), vehicle: saline): 8 of 8 | survivor count (dose: 8.0 mg/kg/injection, schedule: Q03HX016 (ip), vehicle: acid diluted with saline): 8 of 8 | survivor count (dose: 8.0 mg/kg/injection, schedule: Q03HX024 (ip), vehicle: acid diluted with saline): 8 of 8 | survivor count (dose: 8.0 mg/kg/injection, schedule: Q03HX024 (ip), vehicle: saline): 8 of 8 | survivor count (dose: 8.0 mg/kg/injection, schedule: Q04DX003 (ip), vehicle: acid diluted with saline): 8 of 8 | survivor count (dose: 8.0 mg/kg/injection, schedule: Q04DX003 (ip), vehicle: saline): 8 of 8 | survivor count (dose: 8.0 mg/kg/injection, schedule: Q08DX002 (ip), vehicle: acid diluted with saline): 8 of 8 | survivor count (dose: 8.0 mg/kg/injection, schedule: Q08DX002 (ip), vehicle: saline): 8 of 8 | survivor count (dose: 12.5 mg/kg/injection, schedule: Q01DX009 (ip), vehicle: saline): 10 of 10 (2×) | survivor count (dose: 16.0 mg/kg/injection, schedule: Q01DX001 (ip), vehicle: acid diluted with saline): 8 of 8 | survivor count (dose: 16.0 mg/kg/injection, schedule: Q01DX001 (ip), vehicle: saline): 8 of 8 | survivor count (dose: 16.0 mg/kg/injection, schedule: Q01DX001 (oral), vehicle: saline): 8 of 8 | survivor count (dose: 16.0 mg/kg/injection, schedule: Q01DX001 (sc), vehicle: acid diluted with saline): 8 of 8 | survivor count (dose: 16.0 mg/kg/injection, schedule: Q01DX005 (ip), vehicle: acid diluted with saline): 8 of 8 | survivor count (dose: 16.0 mg/kg/injection, schedule: Q01DX005 (ip), vehicle: saline): 8 of 8 | survivor count (dose: 16.0 mg/kg/injection, schedule: Q01DX005 (iv), vehicle: saline): 8 of 8 | survivor count (dose: 16.0 mg/kg/injection, schedule: Q01DX009 (ip), vehicle: acid diluted with saline): 8 of 8 | survivor count (dose: 16.0 mg/kg/injection, schedule: Q01DX009 (ip), vehicle: saline): 8 of 8 | survivor count (dose: 16.0 mg/kg/injection, schedule: Q01DX009 (oral), vehicle: acid diluted with saline): 8 of 8 | survivor count (dose: 16.0 mg/kg/injection, schedule: Q01DX009 (oral), vehicle: saline): 8 of 8 | survivor count (dose: 16.0 mg/kg/injection, schedule: Q01DX009 (sc), vehicle: acid diluted with saline): 8 of 8 | survivor count (dose: 16.0 mg/kg/injection, schedule: Q01DX009 (sc), vehicle: saline): 8 of 8 | survivor count (dose: 16.0 mg/kg/injection, schedule: Q03HX008 (ip), vehicle: acid diluted with saline): 8 of 8 | survivor count (dose: 16.0 mg/kg/injection, schedule: Q03HX008 (ip), vehicle: saline): 6 of 8 | survivor count (dose: 16.0 mg/kg/injection, schedule: Q03HX016 (ip), vehicle: acid diluted with saline): 7 of 8 | survivor count (dose: 16.0 mg/kg/injection, schedule: Q03HX024 (ip), vehicle: acid diluted with saline): 8 of 8 | survivor count (dose: 16.0 mg/kg/injection, schedule: Q03HX024 (ip), vehicle: saline): 8 of 8 | survivor count (dose: 16.0 mg/kg/injection, schedule: Q04DX003 (ip), vehicle: acid diluted with saline): 8 of 8 | survivor count (dose: 16.0 mg/kg/injection, schedule: Q04DX003 (ip), vehicle: saline): 8 of 8 | survivor count (dose: 16.0 mg/kg/injection, schedule: Q08DX002 (ip), vehicle: acid diluted with saline): 8 of 8 | survivor count (dose: 16.0 mg/kg/injection, schedule: Q08DX002 (ip), vehicle: saline): 8 of 8 | survivor count (dose: 25.0 mg/kg/injection, schedule: Q01DX009 (ip), vehicle: saline): 10 of 10 (2×)
